Data as given in PubChem BioAssay AID686937 (Drosophila RNAi Screening Center, 2013)

Aim: 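Genes whose loss weakens secretory pathway function in fly cells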 (primary screen)
Cell system: Drosophila S2 cells expressing secreted horseradish peroxidase
Reagent: long dsRNA against Drosophila genes
Duration: about 5.5 days (5 days dsRNA, then 12 h reporter induction)
Challenge: reporter expression induced after 5 days of dsRNA, read 12 h later; inducer not stated
Detection: 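After 5 days of dsRNA and 12 h of reporter induction, medium peroxidase read by chemiluminescence and scored as per-plate z-score; higher values mean more reporter released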
Direction: z-score: higher = more reporter secreted into medium
The deposit covers about 23,000 reagents; shown is an unselected part of those with a known target gene and a result. 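Reduced-secretion tags in replicate 1 do not always agree with the z-scores; no criterion for assigning the tags was given.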 Names joined by + are all predicted targets of the reagent. Not stated in the record: the amount of reagent.

gene knocked down | amplicon | z-score, replicate 1 | z-score, replicate 2 | z-score, replicate 3 | z-score, replicate 4 | phenotype, replicate 1
SWIP (Strumpellin and WASH-interacting protein) | DRSC19540 | 0.24 | 0.42 | – | – | –
MAPk-Ak2 (MAP kinase activated protein-kinase-2) | DRSC18678 | 0.05 | 0.16 | – | – | –
CG14273 | DRSC02377 | -0.07 | 0.38 | – | – | –
Oatp58Da (Organic anion transporting polypeptide 58Da) | DRSC04365 | 0.13 | 0.22 | – | – | –
Dlip3 (Dorsal interacting protein 3) | DRSC07401 | 0.52 | 0.39 | – | – | –
veg (retired record) | DRSC07714 | 0.09 | 0.32 | – | – | –
CG1847 | DRSC19810 | 0.29 | 0.4 | – | – | –
CG6230 | DRSC01989 | 0.31 | 0.19 | – | – | –
CG42534 | DRSC14722 | 0.44 | 0.07 | – | – | –
CG42534 | DRSC14759 | -1.69 | -1.21 | – | – | reduced secretion
CG42534 | DRSC16072 | 0.24 | 0.47 | – | – | –
Ugt35B1 (UDP-glycosyltransferase family 35 member B1) | DRSC16893 | 0.21 | 0.25 | – | – | –
CG31872 | DRSC02568 | -0.08 | 0.19 | – | – | –
CG31872 | DRSC02572 | 0.27 | 0.43 | – | – | –
CG17361 | DRSC10266 | 0.59 | 0.52 | – | – | –
CG13857 | DRSC14707 | 0.37 | 0.24 | – | – | –
Vml (Vitelline membrane-like) | DRSC17695 | -0.8 | 0.46 | – | – | –
Vml (Vitelline membrane-like) | DRSC18529 | -0.63 | -0.35 | – | – | –
CG31917 + Tfb5 | DRSC02362 | 0.52 | 0.18 | – | – | –
CG31917 + Tfb5 | DRSC02363 | 0.08 | 0.55 | – | – | –
CG18420 | DRSC01954 | 0.41 | 0.13 | – | – | –
Tango8 (Transport and Golgi organization 8) | DRSC06474 | -3.04 | -2.17 | 1.19 | 0.87 | reduced secretion
CG7079 | DRSC16192 | -3.76 | 0.02 | – | – | reduced secretion
trol (terribly reduced optic lobes) | DRSC17714 | 0.46 | 0.49 | – | – | –
trol (terribly reduced optic lobes) | DRSC17718 | -2.53 | 0.57 | – | – | reduced secretion
trol (terribly reduced optic lobes) | DRSC18613 | 0.18 | 0.33 | – | – | –
trol (terribly reduced optic lobes) | DRSC18814 | 0.23 | 0.26 | – | – | –
CG43188 | DRSC05260 | 0.42 | 0.41 | – | – | –
CG11162 | DRSC19391 | 0.01 | -0.01 | – | – | –
CG11162 | DRSC22538 | -2.27 | -0.54 | – | – | reduced secretion
CG6576 | DRSC10663 | 0.15 | 0.36 | – | – | –
dib (disembodied) | DRSC08711 | 0.13 | 0.14 | – | – | –
GstD9 (Glutathione S transferase D9) | DRSC14185 | 0.09 | 0.21 | – | – | –
CG13965 | DRSC02307 | -0.04 | 0.07 | – | – | –
CG5849 | DRSC15893 | 0.36 | 0.46 | – | – | –
gbb (glass bottom boat) | DRSC04687 | 0.36 | 0.36 | – | – | –
CG11449 | DRSC11662 | 0.27 | 0.2 | – | – | –
LamC (Lamin C) | DRSC07453 | 0.46 | 0.46 | – | – | –
CG13437 | DRSC06397 | 0.47 | 0.51 | – | – | –
stai (stathmin) | DRSC02920 | 0.21 | 0.16 | – | – | –
stai (stathmin) | DRSC22235 | 0.31 | 0.49 | – | – | –
CG16820 | DRSC02522 | 0.18 | 0.26 | – | – | –
CG5886 | DRSC15908 | 0.48 | 0.36 | – | – | –
Rab9Db + Rab9Fa | DRSC18445 | 0.35 | 0.56 | – | – | –
mira (miranda) | DRSC16998 | -0.13 | 0.14 | – | – | –
CG10433 | DRSC04068 | 0.16 | 0.19 | – | – | –
ARY (retired record) | DRSC20867 | -0.14 | -0.77 | – | – | –
NO66 (Nucleolar protein 66) | DRSC18252 | 0.19 | 0.27 | – | – | –
brm (brahma) | DRSC11330 | -1.33 | -1.36 | – | – | –
CG43085 | DRSC09497 | 0.07 | 0.49 | – | – | –
CG32855 | DRSC13131 | 0.41 | 0.51 | – | – | –
CG14391 | DRSC14850 | 0.2 | 0.32 | – | – | –
CG12320 | DRSC14498 | 0.35 | 0.55 | – | – | –
CG30103 | DRSC06894 | 0.31 | 0.14 | – | – | –
Phyhd1 (Phytanoyl-CoA dioxygenase domain containing 1) | DRSC14911 | 0.52 | 0.71 | – | – | –
Adsl (Adenylosuccinate lyase) | DRSC15500 | 0.17 | 0.35 | – | – | –
asRNA:CR43259 + CG31089 | DRSC15934 | 0.28 | 0.3 | – | – | –
Cyp12c1 (Cytochrome P450 12c1) | DRSC11125 | 0.4 | 0.38 | – | – | –
Edg78E (Ecdysone-dependent gene 78E) | DRSC11863 | 0.3 | 0.58 | – | – | –
CG13369 | DRSC18481 | 0.4 | 0.17 | – | – | –
Phb2 (Prohibitin 2) | DRSC06512 | -3.28 | 0.6 | – | – | reduced secretion
Tsp47F (Tetraspanin 47F) | DRSC07325 | -0.82 | -0.86 | – | – | –
alpha-Est2 (alpha-Esterase-2) | DRSC12614 | 0.35 | 0.64 | – | – | –
Eip74EF (Ecdysone-induced protein 74EF) | DRSC10613 | -1.93 | -1.34 | – | – | reduced secretion
Eip74EF (Ecdysone-induced protein 74EF) | DRSC11160 | 0.45 | -0.31 | – | – | –
CG5860 | DRSC15896 | 0.62 | 0.68 | – | – | –
CG32650 | DRSC19899 | -0.52 | -0.71 | – | – | –
CG10912 | DRSC06009 | 0.26 | 0.2 | – | – | –
CG31345 | DRSC14193 | -0.33 | 0.23 | – | – | –
CG31345 | DRSC14847 | -0.53 | 0.19 | – | – | –
Bcs1 (Bcs1 chaperone) | DRSC02789 | 0.14 | 0.25 | – | – | –
CG13590 | DRSC04226 | 0.11 | 0.2 | 1.53 | 2.52 | –
Fad2 | DRSC11165 | -4.18 | -4.85 | – | – | reduced secretion
fd3F + CR42499 | DRSC18160 | 0.6 | 0.39 | – | – | –
fd3F + CR42499 | DRSC18161 | 0.49 | 0.42 | – | – | –
CG9436 | DRSC05005 | 0.3 | 0.43 | – | – | –
GXIVsPLA2 | DRSC10243 | 0.32 | 0.29 | – | – | –
Mlh1 | DRSC07473 | 0.53 | 0.34 | – | – | –
PGRP-LB (Peptidoglycan recognition protein LB) | DRSC14926 | 0.15 | 0.31 | – | – | –
CG31313 | DRSC13044 | -1.16 | -0.72 | – | – | –
Cdc27 (Cell division cycle 27) | DRSC11112 | -5.9 | -4.45 | – | – | reduced secretion
Atg17 (Autophagy-related 17) | DRSC12221 | 0.21 | 0.61 | – | – | –
ppk12 (pickpocket 12) | DRSC04086 | 0.32 | 0.25 | – | – | –
CG11227 | DRSC20476 | 0.36 | 0.21 | – | – | –
CR32821 + CR43381 + CR43377 + 1 more | DRSC22544 | -0.45 | -0.46 | – | – | –
CG30197 | DRSC22394 | 0.15 | 0.96 | – | – | –
d-cup (davis-cup) | DRSC14846 | 0.1 | -0.68 | – | – | –
ppk14 (pickpocket 14) | DRSC03238 | 0.11 | -0.02 | – | – | –
CG14687 | DRSC14910 | 0.36 | 0.41 | 0.25 | 0.4 | –
SmE (Small ribonucleoprotein particle protein SmE) | DRSC02680 | -4.12 | -4.26 | – | – | reduced secretion
CG8414 | DRSC07168 | 0.38 | 0.32 | – | – | –
Mcm5 (Minichromosome maintenance 5) | DRSC16735 | 0.15 | 0.12 | – | – | –
CG13096 | DRSC02198 | 0.13 | -0.05 | – | – | –
CG3587 | DRSC18541 | 0.38 | 0.4 | 0.21 | 0.4 | –
CG3587 | DRSC21966 | 0.03 | 0.42 | – | – | –
CG15767 | DRSC18073 | 0.24 | -0.16 | – | – | –
mri (mrityu) | DRSC08259 | 0.14 | 0.37 | – | – | –
CG13712 | DRSC08321 | 0.6 | 0.3 | – | – | –
Oga (O-GlcNAcase) | DRSC15901 | 0.36 | 0.33 | – | – | –
Prp6 (pre-mRNA processing factor 6) | DRSC10724 | 0.25 | 0.32 | 0.37 | 0.42 | –
Prp6 (pre-mRNA processing factor 6) | DRSC21773 | -0.88 | 0.11 | – | – | –
Plap (Phospholipase A2 activator protein) | DRSC00678 | 0.29 | 0.3 | – | – | –
smid (smallminded) | DRSC11398 | 0.37 | 0.27 | – | – | –
CG4766 | DRSC17736 | 0.38 | 0.51 | – | – | –

No new results follow: entries from further up.
gene knocked down | amplicon | z-score, replicate 1 | z-score, replicate 2 | z-score, replicate 3 | z-score, replicate 4 | phenotype, replicate 1
Eip74EF (Ecdysone-induced protein 74EF) | DRSC11160 | 0.45 | -0.31 | – | – | –
CG5860 | DRSC15896 | 0.62 | 0.68 | – | – | –
CG32650 | DRSC19899 | -0.52 | -0.71 | – | – | –
CG10912 | DRSC06009 | 0.26 | 0.2 | – | – | –
CG31345 | DRSC14193 | -0.33 | 0.23 | – | – | –
CG31345 | DRSC14847 | -0.53 | 0.19 | – | – | –
Bcs1 (Bcs1 chaperone) | DRSC02789 | 0.14 | 0.25 | – | – | –
CG13590 | DRSC04226 | 0.11 | 0.2 | 1.53 | 2.52 | –
